For at least one compound, name, drawing or mass did not settle the structure.
Tested on: BDL mice
Assay: Bile duct ligation (BDL) model: hepatocyte senescence and ductular DNA damage
Assay type: in vivo, C57BL/6 mice
Conditions: drug in diet (OCA 0.03% w/w prophylactic; UDCA 0.5% w/w), vs BDL

SMILES: C[C@H](CCC(=O)O)[C@H]1CC[C@H]2[C@@H]3[C@@H](O)C[C@@H]4C[C@H](O)CC[C@]4(C)[C@H]3CC[C@]12C [UDCA, Ursodeoxycholic acid]
- ductular DNA damage (γH2Ax): comparable
